This passage reports binding results from PMC6367972.

Protein sequences, listed by entry. Tags and fused reporters are not part of them.
UniProt Q99LI8: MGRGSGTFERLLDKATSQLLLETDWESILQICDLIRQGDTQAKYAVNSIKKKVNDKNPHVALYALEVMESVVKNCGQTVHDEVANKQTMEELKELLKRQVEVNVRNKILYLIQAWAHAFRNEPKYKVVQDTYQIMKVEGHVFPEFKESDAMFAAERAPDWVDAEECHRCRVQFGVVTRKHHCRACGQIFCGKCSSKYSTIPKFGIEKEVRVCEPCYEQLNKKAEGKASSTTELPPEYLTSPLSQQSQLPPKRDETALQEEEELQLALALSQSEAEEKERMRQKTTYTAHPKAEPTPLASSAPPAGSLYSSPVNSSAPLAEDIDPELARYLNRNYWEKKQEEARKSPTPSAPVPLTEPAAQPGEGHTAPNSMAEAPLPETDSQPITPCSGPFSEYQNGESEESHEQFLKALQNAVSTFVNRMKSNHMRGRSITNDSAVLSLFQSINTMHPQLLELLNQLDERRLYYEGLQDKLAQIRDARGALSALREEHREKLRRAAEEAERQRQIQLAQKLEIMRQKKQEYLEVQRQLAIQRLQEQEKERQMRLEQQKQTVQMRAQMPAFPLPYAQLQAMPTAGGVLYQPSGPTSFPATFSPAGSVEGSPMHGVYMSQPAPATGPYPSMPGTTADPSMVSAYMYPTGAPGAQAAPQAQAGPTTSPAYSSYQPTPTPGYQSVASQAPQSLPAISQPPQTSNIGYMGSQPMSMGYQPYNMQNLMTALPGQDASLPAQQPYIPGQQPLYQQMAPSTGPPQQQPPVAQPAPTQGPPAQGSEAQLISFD

No constants are given. Whether binding was seen depends on the method and setting. In cells and extracts the contact can be indirect. Some results given as binding are weak or reduced against the parent protein; the word gives no strength.

In this test the target is T1, CLEC16A (mouse, splenocytes of control mice) (mouse (endogenous in splenocytes)) (UniProt Q80U30).
T1 sequence: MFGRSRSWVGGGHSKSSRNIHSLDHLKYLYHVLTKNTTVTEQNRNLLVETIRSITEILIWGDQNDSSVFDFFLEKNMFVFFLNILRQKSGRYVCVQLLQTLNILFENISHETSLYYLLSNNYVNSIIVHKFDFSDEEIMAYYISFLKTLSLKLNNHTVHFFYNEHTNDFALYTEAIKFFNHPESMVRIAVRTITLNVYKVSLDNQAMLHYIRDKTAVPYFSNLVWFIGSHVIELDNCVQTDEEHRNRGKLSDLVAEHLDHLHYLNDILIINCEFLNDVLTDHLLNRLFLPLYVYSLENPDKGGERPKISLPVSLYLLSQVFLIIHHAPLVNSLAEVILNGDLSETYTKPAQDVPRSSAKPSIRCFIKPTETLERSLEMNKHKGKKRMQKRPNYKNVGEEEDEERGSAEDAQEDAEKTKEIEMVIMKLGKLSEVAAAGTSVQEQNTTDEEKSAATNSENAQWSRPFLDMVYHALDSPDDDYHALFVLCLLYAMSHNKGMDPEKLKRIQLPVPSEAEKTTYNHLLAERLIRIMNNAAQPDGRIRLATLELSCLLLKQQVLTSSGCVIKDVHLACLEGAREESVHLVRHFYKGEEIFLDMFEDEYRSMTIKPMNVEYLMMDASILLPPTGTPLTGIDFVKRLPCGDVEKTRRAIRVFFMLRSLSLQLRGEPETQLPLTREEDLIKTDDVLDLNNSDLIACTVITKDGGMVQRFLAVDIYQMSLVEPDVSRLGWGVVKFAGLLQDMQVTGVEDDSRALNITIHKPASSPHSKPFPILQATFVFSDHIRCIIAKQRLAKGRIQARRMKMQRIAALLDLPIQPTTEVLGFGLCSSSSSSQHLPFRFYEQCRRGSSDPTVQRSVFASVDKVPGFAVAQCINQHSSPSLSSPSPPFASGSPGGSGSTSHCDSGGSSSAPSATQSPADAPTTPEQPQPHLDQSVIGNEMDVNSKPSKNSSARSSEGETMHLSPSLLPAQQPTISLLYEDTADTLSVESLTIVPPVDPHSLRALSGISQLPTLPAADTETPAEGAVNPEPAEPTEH
Kind of test: co-IP; lysates of 250 x 10^6 splenocytes from control (oil) and Clec16a KO (TAM) mice, CLEC16A IP; immunoblot for CLEC16A and Hrs. Background: In western blotting, separated proteins are transferred to a membrane and probed.

With “Hrs (mouse, splenocytes) (from UniProt Q99LI8 1-775)”, the binding entry is “binds”.
